The subject of this assay is B6C3F1 mice, B16 melanoma ip, median survival T/C. The assay can be described thus: NCI In Vivo Anticancer Drug Screen. Data for tumor model B16 Melanoma (intraperitoneal) in B6C3F1 mice. The note with it: T/C endpoint: median survival time, schedule: Q01DX009 (ip), higher T/C = longer survival. The procedure, abridged:
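Readout: survival or tumor size in treated mice relative to vehicle controls (T/C). Model uses transplantable tumors grown in mice.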

Where [1] appears, read: dose: 100.0 mg/kg/injection, vehicle: saline.
Where [2] appears, read: dose: 200.0 mg/kg/injection, vehicle: saline with Tween-80.
[3] abbreviates: dose: 400.0 mg/kg/injection, vehicle: saline with Tween-80.

The list is a part of this screen's results and no random one: it gathers tests that were run many times, whatever their T/C, doses with no T/C, and many T/C values between a quarter and a half above the control. Further doses and runs are listed elsewhere. T/C is the treated group as % of the vehicle group. Some doses have a count of surviving animals in place of a T/C: the source holds a T/C of zero for them, seemingly a mark for toxic or unscored doses. Some doses without a T/C left all or most animals alive at the check, yet need not have been tolerated: the source hardly ever lists a survival T/C far under the control, and the zero likely stands for such cases as well. Counts of survivors are from the toxicity check (mostly the fifth day) where no day follows; animals may have died later. Schedules are NCI's codes, taken here to give the interval after Q, in days (D) or hours (H), and the number of doses after X. Some entries hold several experiments; the values are given in rising order. Where survival is the endpoint, this PubChem deposit counts one and a half times the control or more as active, and values a quarter to a half above the control carry no call in these data; other NCI protocols may use other cut-offs.

For the compound `c1cc2c(c(CC3CO3)c1CC1CO1)OCCOCCOCCOCCO2` (centres undefined), the T/C (dose: 200.0 mg/kg/injection, vehicle: saline + Tween-80 + alcohol) is 145 % of control. Besides, the survivor count by setting is: (dose: 400.0 mg/kg/injection, vehicle: saline + Tween-80 + alcohol) 0 of 10; (dose: 400.0 mg/kg/injection, vehicle: saline + alcohol) 2 of 10.
With `CCCCCCCCCCCCOCCCOP(=O)([O-])OCC[N+](C)(C)C`, the survivor count (dose: 50.0 mg/kg/injection, vehicle: saline) is 10 of 10 and the survivor count under setting [1] is listed as 10 of 10.
With `COc1ccc(OCC(O)CN2CCN(c3ccc(Cl)cc3)CC2)cc1` (centres undefined), the survivor count under setting [2] is on record as 10 of 10 and the survivor count under setting [3] is 10 of 10.
`CNC(=O)ON(C(C)=O)C(=O)NC`: the survivor count is, setting by setting: under setting [1], 0 of 9; (dose: 200.0 mg/kg/injection, vehicle: saline) 0 of 9; (dose: 400.0 mg/kg/injection, vehicle: saline) 0 of 9.
For the compound `O=C1CN(Cc2ccc3c(c2)OCO3)NO1`, the survivor count (dose: 100.0 mg/kg/injection, vehicle: saline with Tween-80) is given as 9 of 10; the survivor count under setting [2] was 9 of 10 and 10 of 10.
Take `CC(C)CC(NC(=O)OCc1ccccc1)C(=O)O` (centres undefined): the survivor count by setting is: under setting [2], 10 of 10; under setting [3], 10 of 10.

(Values after PubChem BioAssay AID200 (DTP/NCI, 2004).)
